Data from paper PMC10139132, “Immobilization of M3 Muscarinic Receptor to Rapidly Analyze Drug—Protein Interactions and Bioactive Components in a Natural Plant” (International Journal of Molecular Sciences, 2023).
Structures can show the parent of a compound that is named as a salt. Where two headings read alike, the source gives them in different places.

System: M3 muscarinic receptor (M3R)
Format: binding

SMILES | mL by Frontal Analysis (number of binding sites) | mL by Frontal Analysis (number of binding sites) (immobilized M3R column)
CN1[C@@H]2CC(OC(=O)[C@H](CO)c3ccccc3)C[C@H]1[C@@H]1O[C@@H]12.Cl (single isomer, unassigned; (-)) [(−)-Scopolamine hydrochloride] | (1.44 ± 0.19) × 10^−7 M | 
CN1[C@@H]2CC[C@H]1C[C@@H](OC(=O)C(CO)c1ccccc1)C2 (some centres unmarked) [Atropine sulfate, atropine sulfate] |  | (1.42 ± 0.45) × 10^−7 M
